This is an account of results in PMC3855176.

By UniProt entry, the sequences of proteins in these tests, tags left out. Where a name states a change or a piece, a line headed by the entry shows the natural chain unless it says otherwise. Chains listed by the source or under a name are the forms on record and can include a tag or linker.
myc-tagged DPYSL3 (dihydropyrimidinase-like 3) (Q14195, form named): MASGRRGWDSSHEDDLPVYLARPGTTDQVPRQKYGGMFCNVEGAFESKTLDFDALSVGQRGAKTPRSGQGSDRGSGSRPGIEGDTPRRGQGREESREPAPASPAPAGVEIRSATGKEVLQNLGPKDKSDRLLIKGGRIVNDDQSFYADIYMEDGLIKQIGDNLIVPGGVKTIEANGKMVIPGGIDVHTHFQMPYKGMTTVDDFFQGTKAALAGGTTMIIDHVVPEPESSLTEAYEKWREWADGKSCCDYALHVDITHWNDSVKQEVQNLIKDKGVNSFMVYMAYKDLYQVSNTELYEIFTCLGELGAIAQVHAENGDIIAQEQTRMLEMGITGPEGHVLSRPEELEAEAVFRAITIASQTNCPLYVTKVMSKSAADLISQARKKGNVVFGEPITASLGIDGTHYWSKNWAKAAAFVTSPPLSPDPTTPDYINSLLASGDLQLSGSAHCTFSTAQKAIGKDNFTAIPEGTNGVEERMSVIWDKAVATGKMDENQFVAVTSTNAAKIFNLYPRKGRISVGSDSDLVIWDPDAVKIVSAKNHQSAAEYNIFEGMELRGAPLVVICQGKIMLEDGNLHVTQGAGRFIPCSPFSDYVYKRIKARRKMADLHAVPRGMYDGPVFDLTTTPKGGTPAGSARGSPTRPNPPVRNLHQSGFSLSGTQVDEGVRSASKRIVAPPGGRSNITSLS
UniProt P15311: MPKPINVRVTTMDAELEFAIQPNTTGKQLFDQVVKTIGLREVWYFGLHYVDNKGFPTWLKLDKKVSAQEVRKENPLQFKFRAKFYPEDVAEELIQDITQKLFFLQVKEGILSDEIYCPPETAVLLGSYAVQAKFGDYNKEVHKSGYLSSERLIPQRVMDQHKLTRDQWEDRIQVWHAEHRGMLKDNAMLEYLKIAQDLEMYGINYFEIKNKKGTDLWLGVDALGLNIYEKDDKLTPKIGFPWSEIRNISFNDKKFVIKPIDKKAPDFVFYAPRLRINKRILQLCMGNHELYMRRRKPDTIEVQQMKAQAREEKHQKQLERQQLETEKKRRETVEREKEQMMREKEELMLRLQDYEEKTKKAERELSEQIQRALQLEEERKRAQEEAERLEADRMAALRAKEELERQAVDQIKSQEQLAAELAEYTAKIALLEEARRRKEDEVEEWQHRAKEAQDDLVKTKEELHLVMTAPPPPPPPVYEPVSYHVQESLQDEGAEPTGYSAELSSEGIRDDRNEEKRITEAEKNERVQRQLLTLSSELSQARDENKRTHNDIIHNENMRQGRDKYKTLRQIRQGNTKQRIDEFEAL
UniProt Q05397: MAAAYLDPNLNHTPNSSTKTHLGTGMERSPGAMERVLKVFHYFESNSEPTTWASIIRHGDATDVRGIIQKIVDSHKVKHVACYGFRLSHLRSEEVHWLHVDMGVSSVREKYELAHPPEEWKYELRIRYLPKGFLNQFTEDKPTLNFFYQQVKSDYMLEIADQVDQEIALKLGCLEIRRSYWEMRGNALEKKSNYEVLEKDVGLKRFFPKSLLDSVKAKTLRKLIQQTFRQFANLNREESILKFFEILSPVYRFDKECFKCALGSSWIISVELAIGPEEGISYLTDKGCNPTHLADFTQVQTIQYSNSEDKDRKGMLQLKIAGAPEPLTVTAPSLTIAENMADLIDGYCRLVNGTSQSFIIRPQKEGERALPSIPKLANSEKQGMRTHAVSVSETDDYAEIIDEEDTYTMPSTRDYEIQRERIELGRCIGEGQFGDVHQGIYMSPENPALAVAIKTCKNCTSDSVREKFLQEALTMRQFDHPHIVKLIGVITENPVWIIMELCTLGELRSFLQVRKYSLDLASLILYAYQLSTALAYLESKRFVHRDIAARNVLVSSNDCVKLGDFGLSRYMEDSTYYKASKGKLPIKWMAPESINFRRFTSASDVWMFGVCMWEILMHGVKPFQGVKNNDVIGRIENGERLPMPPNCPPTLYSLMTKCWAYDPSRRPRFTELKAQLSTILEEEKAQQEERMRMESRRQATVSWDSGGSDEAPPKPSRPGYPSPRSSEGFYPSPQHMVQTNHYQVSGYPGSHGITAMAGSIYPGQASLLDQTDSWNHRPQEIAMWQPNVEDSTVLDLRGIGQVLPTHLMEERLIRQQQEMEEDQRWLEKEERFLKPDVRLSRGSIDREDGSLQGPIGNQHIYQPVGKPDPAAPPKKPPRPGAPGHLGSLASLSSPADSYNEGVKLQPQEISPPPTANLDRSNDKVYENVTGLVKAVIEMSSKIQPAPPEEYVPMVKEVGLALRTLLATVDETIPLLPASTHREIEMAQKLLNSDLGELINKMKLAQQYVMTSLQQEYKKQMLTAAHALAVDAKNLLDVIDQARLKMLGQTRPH
UniProt Q9Y490: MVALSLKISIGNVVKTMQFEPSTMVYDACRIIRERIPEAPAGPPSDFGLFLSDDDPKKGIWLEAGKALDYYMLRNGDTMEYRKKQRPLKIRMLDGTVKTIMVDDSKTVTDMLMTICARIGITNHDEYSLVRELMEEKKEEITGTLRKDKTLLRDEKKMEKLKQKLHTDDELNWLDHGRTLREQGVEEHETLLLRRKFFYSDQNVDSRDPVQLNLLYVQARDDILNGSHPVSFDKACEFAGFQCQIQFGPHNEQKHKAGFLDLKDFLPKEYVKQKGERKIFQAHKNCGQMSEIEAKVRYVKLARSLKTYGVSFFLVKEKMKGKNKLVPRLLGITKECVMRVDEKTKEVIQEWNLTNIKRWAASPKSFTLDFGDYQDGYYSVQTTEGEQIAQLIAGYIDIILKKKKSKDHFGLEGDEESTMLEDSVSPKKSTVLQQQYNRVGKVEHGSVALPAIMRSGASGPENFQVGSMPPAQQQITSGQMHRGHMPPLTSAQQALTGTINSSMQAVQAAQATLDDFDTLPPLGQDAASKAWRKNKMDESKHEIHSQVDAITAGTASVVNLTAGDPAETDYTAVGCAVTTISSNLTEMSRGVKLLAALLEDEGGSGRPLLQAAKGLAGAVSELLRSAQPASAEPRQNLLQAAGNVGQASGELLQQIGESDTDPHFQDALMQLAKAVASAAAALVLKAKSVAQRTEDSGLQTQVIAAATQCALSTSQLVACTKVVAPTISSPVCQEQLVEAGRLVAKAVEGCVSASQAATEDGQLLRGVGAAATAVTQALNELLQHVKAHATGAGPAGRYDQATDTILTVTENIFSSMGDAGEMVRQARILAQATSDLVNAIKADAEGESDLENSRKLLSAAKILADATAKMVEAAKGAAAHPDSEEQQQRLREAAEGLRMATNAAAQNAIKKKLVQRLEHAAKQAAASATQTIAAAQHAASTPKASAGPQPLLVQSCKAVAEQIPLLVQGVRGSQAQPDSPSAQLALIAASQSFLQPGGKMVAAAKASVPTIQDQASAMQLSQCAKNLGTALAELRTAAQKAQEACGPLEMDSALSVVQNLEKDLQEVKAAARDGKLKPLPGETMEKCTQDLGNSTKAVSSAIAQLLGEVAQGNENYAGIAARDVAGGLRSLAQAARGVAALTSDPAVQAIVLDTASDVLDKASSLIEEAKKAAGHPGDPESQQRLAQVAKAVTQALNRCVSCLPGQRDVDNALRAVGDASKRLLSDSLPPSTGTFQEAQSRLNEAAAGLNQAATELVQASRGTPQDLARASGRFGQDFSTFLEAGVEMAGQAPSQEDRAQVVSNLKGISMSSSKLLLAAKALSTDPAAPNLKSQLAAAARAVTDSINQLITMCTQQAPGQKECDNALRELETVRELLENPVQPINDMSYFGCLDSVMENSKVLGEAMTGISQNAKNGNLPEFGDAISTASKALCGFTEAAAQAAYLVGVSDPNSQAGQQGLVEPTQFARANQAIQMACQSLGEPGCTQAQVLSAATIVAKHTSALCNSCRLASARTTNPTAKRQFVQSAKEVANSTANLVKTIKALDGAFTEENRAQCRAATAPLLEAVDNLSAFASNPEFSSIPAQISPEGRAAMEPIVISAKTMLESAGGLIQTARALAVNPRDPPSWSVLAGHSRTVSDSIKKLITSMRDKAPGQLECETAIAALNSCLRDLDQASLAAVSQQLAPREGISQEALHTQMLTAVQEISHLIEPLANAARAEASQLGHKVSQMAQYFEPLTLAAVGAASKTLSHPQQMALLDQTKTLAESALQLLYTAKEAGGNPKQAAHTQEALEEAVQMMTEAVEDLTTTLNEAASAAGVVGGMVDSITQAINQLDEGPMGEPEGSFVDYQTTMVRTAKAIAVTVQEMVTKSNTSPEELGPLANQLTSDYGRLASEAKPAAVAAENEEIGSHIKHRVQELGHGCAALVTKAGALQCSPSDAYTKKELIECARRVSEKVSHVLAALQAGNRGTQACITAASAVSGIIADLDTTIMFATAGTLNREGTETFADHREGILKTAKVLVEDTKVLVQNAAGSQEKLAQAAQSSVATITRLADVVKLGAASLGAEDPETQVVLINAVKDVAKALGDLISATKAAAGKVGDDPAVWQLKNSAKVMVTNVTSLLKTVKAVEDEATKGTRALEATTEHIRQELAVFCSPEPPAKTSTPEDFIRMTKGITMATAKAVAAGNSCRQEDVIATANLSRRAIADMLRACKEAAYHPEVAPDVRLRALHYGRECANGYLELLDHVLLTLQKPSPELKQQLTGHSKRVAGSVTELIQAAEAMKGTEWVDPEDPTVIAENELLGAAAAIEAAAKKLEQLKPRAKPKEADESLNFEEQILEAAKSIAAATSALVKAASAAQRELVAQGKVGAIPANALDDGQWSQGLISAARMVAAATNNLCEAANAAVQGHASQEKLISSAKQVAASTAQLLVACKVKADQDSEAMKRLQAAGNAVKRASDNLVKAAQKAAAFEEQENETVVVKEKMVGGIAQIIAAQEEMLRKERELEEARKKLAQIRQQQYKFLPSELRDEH

Test [1] deals with myc-tagged DPYSL3 (dihydropyrimidinase-like 3) (human) (UniProt Q14195). The test is described as follows: co-IP; lysate of PANC-1 cells stably expressing DPYSL3-myc (or myc vector) in NP-40 lysis buffer (20 mM Tris-HCl pH 8.0, 100 mM NaCl, 0.5% NP-40, 5 mM EDTA); agarose-conjugated anti-c-myc antibody overnight at 4°C; western blot. For orientation: A western blot detects proteins with antibodies after separation by electrophoresis.

The target in test [2] is Ezrin (EZR) (human (endogenous in CFPAC-1 and PANC-1)) (UniProt P15311). The test is described as follows: co-IP; lysate of PANC-1 cells stably expressing DPYSL3-myc or myc vector in NP-40 lysis buffer; anti-Ezrin antibody overnight at 4°C, protein G-sepharose; western blot.

These are yes or no findings as the source states them, for the method shown. Binding seen in cells or lysates may run through a third protein. Some results given as binding are weak or reduced against the parent protein; the word gives no strength.

For “focal adhesion kinase (FAK) (from UniProt Q05397 1-1052)”, the binding result in test [1] and in test [2] was “binds” each time.

Consider “Talin1 (TLN1) (from UniProt Q9Y490 1-2541)”, for which the binding result in test [1] and in test [2] was “binds” throughout.

Take Ezrin (EZR) (from UniProt P15311 1-586): the binding entry in test [1] was “binds”.
